# Reference: the supplement of paper PMC10849652
# The chains behind the UniProt entries cited, without tags or fusion partners. Where a name states a change or a piece, a line headed by the entry shows the natural chain unless it says otherwise.
# UniProt Q969X5: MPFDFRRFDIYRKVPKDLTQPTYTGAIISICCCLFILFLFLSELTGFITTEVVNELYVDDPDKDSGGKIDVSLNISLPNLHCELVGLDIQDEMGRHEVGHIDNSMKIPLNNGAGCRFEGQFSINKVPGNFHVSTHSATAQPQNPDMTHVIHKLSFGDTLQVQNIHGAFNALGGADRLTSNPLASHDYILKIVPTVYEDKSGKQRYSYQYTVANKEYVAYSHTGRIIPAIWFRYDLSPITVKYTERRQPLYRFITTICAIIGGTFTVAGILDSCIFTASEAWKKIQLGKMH
# UniProt Q9UBC2: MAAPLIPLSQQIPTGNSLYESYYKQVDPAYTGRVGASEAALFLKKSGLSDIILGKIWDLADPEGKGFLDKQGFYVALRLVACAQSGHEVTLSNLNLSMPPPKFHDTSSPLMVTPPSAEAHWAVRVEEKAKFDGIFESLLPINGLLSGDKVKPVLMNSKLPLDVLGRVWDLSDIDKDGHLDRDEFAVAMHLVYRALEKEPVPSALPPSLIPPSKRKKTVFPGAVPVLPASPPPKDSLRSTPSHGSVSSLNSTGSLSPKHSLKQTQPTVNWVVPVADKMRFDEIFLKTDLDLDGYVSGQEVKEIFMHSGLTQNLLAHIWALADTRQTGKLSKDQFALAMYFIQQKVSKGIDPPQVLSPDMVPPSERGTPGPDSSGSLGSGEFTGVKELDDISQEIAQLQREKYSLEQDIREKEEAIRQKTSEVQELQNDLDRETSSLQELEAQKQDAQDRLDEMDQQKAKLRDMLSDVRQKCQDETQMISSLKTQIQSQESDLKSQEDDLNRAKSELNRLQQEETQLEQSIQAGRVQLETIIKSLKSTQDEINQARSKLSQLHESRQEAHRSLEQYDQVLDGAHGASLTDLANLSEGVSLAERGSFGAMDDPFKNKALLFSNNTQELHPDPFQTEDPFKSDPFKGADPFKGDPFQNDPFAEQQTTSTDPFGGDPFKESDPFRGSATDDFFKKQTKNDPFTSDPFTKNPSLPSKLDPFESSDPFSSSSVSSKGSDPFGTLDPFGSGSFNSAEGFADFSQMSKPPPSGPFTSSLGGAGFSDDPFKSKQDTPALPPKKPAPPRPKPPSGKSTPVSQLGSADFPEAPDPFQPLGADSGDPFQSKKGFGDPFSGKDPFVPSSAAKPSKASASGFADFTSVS
# UniProt Q16134: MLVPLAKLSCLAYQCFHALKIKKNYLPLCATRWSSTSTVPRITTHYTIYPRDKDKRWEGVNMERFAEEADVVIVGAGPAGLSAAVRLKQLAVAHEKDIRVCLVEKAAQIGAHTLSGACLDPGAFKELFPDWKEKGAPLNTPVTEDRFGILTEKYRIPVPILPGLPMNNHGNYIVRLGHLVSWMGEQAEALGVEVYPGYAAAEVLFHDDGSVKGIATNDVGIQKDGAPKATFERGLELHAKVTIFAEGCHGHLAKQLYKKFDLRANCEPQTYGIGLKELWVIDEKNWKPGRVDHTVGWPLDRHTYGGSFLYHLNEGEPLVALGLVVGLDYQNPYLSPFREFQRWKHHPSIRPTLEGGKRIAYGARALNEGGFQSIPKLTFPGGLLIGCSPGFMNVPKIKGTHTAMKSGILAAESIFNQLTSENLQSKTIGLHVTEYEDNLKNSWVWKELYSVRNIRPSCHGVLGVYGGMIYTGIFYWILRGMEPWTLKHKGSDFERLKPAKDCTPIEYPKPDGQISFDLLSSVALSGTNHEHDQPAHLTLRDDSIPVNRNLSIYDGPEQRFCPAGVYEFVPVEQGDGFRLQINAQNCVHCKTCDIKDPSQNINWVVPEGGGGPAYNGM
# UniProt P07814: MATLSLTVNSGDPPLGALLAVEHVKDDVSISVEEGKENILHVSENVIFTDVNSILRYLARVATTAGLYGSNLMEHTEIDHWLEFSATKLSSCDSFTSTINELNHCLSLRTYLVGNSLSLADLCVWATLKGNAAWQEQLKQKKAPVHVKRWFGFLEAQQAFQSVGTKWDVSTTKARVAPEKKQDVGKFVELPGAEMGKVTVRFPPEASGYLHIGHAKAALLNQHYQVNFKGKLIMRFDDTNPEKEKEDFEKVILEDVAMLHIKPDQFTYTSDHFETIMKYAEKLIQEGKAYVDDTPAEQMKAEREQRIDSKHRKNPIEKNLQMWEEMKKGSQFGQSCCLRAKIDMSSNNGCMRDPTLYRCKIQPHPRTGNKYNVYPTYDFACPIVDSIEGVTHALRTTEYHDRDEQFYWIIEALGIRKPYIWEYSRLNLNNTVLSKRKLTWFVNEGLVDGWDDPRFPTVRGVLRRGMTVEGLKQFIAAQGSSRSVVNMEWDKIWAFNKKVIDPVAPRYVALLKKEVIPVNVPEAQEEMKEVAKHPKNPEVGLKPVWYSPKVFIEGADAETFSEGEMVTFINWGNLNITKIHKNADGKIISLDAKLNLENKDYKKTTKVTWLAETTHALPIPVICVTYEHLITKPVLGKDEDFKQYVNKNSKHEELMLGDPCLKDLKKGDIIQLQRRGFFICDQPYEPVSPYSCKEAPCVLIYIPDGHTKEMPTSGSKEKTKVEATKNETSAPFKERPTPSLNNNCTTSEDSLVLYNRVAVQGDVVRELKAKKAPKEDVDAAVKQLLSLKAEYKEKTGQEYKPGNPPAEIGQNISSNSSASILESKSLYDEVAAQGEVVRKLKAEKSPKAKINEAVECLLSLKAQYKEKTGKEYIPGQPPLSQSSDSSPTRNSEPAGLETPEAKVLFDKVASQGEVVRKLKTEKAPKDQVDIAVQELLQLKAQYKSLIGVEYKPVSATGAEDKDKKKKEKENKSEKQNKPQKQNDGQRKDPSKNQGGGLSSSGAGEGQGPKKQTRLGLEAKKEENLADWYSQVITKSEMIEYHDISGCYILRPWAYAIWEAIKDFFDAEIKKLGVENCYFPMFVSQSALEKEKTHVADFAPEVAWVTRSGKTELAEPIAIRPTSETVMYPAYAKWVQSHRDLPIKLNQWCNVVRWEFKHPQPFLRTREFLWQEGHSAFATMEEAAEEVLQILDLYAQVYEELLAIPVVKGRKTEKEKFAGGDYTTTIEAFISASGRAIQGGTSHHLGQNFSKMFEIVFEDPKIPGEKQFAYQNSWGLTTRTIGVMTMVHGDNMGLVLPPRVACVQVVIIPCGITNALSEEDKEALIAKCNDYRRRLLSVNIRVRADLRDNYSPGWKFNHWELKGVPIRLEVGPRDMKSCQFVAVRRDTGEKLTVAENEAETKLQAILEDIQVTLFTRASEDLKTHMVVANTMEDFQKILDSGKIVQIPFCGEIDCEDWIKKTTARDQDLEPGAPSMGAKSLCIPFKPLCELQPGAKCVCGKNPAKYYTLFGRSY
# UniProt Q9Y6I3: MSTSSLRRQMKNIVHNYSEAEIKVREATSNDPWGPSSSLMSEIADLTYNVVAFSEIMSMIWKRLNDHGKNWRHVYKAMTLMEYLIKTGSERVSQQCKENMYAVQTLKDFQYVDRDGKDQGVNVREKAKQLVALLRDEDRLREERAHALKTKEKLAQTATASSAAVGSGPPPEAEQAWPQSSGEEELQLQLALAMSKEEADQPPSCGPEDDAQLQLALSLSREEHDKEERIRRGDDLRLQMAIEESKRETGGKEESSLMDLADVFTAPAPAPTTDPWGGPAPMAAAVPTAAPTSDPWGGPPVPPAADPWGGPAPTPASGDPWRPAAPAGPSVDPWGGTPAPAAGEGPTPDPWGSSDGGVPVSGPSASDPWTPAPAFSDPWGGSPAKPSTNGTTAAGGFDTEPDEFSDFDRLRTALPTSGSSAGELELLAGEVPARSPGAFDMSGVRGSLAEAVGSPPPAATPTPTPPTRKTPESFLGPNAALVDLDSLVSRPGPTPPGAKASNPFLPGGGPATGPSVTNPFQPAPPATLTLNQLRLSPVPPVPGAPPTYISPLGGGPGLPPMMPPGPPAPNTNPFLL
# UniProt Q7Z309: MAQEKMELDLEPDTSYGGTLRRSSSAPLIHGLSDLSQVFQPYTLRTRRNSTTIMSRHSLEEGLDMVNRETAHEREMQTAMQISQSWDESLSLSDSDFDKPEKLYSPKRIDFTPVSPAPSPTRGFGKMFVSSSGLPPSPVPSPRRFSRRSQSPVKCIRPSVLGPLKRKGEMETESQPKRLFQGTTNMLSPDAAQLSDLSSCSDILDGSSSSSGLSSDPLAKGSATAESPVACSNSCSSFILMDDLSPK
# UniProt P16930: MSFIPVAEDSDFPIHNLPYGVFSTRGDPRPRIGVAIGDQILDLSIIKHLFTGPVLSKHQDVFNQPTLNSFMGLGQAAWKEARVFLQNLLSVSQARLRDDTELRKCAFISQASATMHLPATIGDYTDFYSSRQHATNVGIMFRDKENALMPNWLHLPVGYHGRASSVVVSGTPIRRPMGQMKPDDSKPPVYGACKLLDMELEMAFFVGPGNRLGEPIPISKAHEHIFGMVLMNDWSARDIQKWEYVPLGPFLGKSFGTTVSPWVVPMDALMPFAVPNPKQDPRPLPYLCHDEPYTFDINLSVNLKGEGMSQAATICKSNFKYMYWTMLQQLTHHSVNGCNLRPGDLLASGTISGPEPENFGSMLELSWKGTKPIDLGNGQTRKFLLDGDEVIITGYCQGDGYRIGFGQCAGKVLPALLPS
# UniProt Q96KP1: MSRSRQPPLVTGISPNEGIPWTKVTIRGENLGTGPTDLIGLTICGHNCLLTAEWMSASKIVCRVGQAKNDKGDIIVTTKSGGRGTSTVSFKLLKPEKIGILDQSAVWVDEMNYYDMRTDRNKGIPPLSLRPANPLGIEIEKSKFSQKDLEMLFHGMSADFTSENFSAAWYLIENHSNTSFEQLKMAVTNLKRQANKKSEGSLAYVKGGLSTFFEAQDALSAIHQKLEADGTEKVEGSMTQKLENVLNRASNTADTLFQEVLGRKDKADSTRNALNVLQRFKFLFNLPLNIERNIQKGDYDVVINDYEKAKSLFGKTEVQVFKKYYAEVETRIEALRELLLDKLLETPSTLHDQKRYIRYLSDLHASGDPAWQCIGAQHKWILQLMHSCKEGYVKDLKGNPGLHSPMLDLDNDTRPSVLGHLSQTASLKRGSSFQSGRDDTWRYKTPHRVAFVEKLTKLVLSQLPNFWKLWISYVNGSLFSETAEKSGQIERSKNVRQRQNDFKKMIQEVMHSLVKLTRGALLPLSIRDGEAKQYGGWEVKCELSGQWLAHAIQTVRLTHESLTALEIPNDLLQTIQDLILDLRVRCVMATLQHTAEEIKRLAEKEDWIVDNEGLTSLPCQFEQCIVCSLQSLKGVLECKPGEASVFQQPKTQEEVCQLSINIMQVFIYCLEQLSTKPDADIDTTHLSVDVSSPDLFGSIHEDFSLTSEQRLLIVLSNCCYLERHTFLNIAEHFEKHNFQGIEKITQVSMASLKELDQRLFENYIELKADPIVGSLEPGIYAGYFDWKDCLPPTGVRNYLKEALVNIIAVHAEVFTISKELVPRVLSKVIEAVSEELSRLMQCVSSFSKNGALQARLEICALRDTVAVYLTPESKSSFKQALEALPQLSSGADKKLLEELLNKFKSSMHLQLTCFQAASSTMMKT
# UniProt Q5RKV6, whole entry, looked up: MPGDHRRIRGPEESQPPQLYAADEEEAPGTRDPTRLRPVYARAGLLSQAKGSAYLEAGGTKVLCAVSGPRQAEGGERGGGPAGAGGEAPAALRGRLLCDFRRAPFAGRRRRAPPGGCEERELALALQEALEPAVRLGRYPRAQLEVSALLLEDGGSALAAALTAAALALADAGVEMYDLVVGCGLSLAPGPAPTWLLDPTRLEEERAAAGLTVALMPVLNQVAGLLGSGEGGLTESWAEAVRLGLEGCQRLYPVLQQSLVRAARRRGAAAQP
# UniProt Q8N128: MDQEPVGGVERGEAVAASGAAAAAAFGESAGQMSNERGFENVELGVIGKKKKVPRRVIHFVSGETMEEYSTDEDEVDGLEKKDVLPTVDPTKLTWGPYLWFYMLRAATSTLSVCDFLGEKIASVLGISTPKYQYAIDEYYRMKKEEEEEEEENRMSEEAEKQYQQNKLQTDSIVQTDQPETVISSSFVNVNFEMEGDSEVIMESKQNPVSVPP
# UniProt Q15024, whole entry, looked up: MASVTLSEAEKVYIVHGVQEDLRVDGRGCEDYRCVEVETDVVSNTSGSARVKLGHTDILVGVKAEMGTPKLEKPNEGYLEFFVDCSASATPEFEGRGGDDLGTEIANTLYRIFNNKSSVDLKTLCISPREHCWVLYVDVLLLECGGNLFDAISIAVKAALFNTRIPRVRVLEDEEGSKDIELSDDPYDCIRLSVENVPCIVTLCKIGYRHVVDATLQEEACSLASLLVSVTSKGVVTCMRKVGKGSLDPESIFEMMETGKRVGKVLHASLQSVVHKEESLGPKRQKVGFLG
# UniProt Q9BPY3: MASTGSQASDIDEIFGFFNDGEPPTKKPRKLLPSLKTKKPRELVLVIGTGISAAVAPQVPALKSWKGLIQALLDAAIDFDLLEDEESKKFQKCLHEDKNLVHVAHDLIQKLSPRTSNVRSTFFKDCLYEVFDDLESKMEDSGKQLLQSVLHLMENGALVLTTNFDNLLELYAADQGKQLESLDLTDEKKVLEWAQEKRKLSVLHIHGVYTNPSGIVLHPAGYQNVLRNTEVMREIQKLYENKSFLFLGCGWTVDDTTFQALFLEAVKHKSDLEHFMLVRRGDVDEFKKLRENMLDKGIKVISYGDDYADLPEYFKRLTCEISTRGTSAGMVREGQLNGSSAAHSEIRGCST
# Some of the results follow.
# Legend:
# Assay in all cases: log2 fold change, soluble protein after heating vs DMSO (PISA); higher = thermal stabilisation; K562 cells, 10 uM, 30 min; active = over 0.2 and 3.5 SD of the protein, either way, in both replicates (recomputed)
# erlotinib = compound: C#Cc1cccc(Nc2ncnc3cc(OCCOC)c(OCCOC)cc23)c1 [erlotinib]
# Method in brief: (§1)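 Quantification of soluble protein used TMTpro 16plex LC-MS/MS, with channel sums equalised. Samples were the supernatant after 21,000xg for 90 min of pooled aliquots from K562 cells (2×10^6 cells/mL) treated with 10 μM compound for 30 min, heated for 3 min over 48°C-58°C, and extracted in PBS with 0.5% NP-40 at 4°C. Values, from duplicates, describe thermal stability against control samples on a log2 fold-change scale.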
# [1] = compound: C/C(=N\NC(=O)C1=CC(=CC=C1)S(=O)(=O)N2CCOCC2)/C3=C(C=CC(=C3)Cl)O
# Method in brief: as §1
# [2] = compound: C1=CC(=C(C=C1Cl)C2=NC3=NC=CN=C3C(=N2)NC4=CC=NC=C4)F
# Method in brief: as §1
# [3] = compound: C1=CC(=CC=C1C2=NC3=C(N2)C=C(C=C3)C(=O)N)OC4=CC=C(C=C4)Cl
# Method in brief: as §1
# [4] = compound: C1=CC2=C(C=CC(=C2)/C=C\3/C(=O)NC(=NCC4=CC=CS4)S3)N=C1
# Method in brief: as §1
# [5] = compound: C1=CC2=NC=CN=C2C=C1/C=C/3\C(=O)NC(=O)S3
# Method in brief: as §1
# [6] = compound: C1=CC=C(C=C1)C2=NC(=C(N2)C3=CC=NC=C3)C4=CC(=C(C=C4)Cl)O
# Method in brief: as §1
# [7] = compound: C1=CC=C2C(=C1)C3=NNC4=CC=CC(=C43)C2=O
# Method in brief: as §1
# [8] = compound: C1CCN(C1)C(=O)NC2=CC=CC(=C2)NC3=NC=C(C(=N3)NCCC4=CN=CN4)Br
# Method in brief: as §1
# [9] = compound: C1CN(CCC1(CC2=CC=C(C=C2)Cl)N)C3=NC=NC4=C3C=CN4
# Method in brief: as §1
Target,log2 fold change (erlotinib),log2 fold change [1],log2 fold change [2],log2 fold change [3],log2 fold change [4],log2 fold change [5],log2 fold change [6],log2 fold change [7],log2 fold change [8],log2 fold change [9]
ERGIC1 (UniProt Q969X5),inactive: 0.029,inactive: 0.022,inactive: 0.012,inactive: -0.005,inactive: 0.049,inactive: 0.052,inactive: -0.008,inactive: -0.04,inactive: 0.015,inactive: 0.041
ERBIN isoform 8 (UniProt Q96RT1),inactive: 0.068,inactive: 0.052,inactive: 0.009,inactive: 0.051,inactive: -0.031,inactive: 0.023,inactive: 0.118,inactive: -0.018,inactive: -0.006,inactive: 0.02
EPS15L1 isoform 2 (UniProt Q9UBC2),inactive: 0.007,inactive: 0.034,inactive: 0.031,inactive: -0.016,inactive: -0.011,inactive: 0.029,inactive: -0.026,inactive: -0.008,inactive: 0.034,inactive: -0.158
EXTL2 (UniProt Q9UBQ6),inactive: 0.051,inactive: 0.018,inactive: -0.129,inactive: 0.04,inactive: 0.016,inactive: 0.037,inactive: -0.031,inactive: 0.062,inactive: -0.092,inactive: -0.119
ERCC2 (UniProt P18074),inactive: 0.04,inactive: 0.049,inactive: 0.2,inactive: 0.033,inactive: 0.041,inactive: -0.051,inactive: 0.014,inactive: -0.054,inactive: -0.005,inactive: 0.036
ETFDH (UniProt Q16134),inactive: 0.043,inactive: 0.02,inactive: 0.027,inactive: 0.007,inactive: 0.091,inactive: 0.005,inactive: 0.001,inactive: -0.011,inactive: 0.017,inactive: 0.025
EXOC1 (UniProt Q9NV70),inactive: 0.057,inactive: 0.163,inactive: -0.104,inactive: -0.05,inactive: 0.17,inactive: 0.013,inactive: 0.051,inactive: 0.054,inactive: -0.044,inactive: -0.073
EPCAM (UniProt P16422),inactive: -0.028,inactive: 0.072,inactive: -0.017,inactive: 0.019,inactive: -0.042,inactive: -0.032,inactive: -0.049,inactive: -0.044,inactive: -0.11,inactive: 0.031
ERC1 (UniProt Q8IUD2),inactive: 0.035,inactive: 0.07,inactive: 0.003,inactive: 0.03,inactive: 0.211,inactive: -0.064,inactive: 0.038,inactive: 0.003,inactive: -0.058,inactive: 0.063
EPRS (UniProt P07814),inactive: -0.016,inactive: -0.05,inactive: -0.36,inactive: -0.006,inactive: -0.009,inactive: 0.001,inactive: -0.048,inactive: 0,inactive: 0.036,inactive: -0.201
EPN1 (UniProt Q9Y6I3),inactive: 0.02,inactive: 0.065,inactive: 0.066,inactive: 0.004,inactive: 0.029,inactive: 0.049,inactive: 0.021,inactive: -0.014,inactive: -0.023,inactive: 0.046
"ERVK3-1, A0A0U1RQV1",inactive: -0.011,inactive: -0.207,inactive: 0.344,inactive: 0.023,inactive: -0.057,inactive: 0.18,inactive: 0.092,inactive: -0.049,inactive: 0,inactive: -0.012
FAM122B isoform 3 (UniProt Q7Z309),inactive: 0.111,inactive: -0.074,inactive: -0.028,inactive: 0.017,inactive: -0.102,inactive: 0.003,inactive: 0.04,inactive: 0.035,inactive: -0.134,inactive: 0.071
FAH (UniProt P16930),inactive: -0.049,inactive: 0.001,inactive: 0.019,inactive: 0.043,inactive: 0.014,inactive: 0.005,inactive: 0.01,inactive: -0.027,inactive: -0.001,inactive: 0.037
FABP5 (UniProt Q01469),inactive: -0.037,inactive: 0.096,inactive: 0.035,inactive: 0.017,inactive: -0.125,inactive: 0.014,inactive: 0.083,inactive: 0,inactive: 0.019,inactive: -0.011
ERCC5 (UniProt P28715),inactive: -0.03,inactive: -0.003,inactive: -0.254,inactive: 0.098,inactive: -0.076,inactive: -0.109,inactive: -0.024,inactive: -0.013,inactive: 0.076,inactive: 0
EXOC2 (UniProt Q96KP1),inactive: 0.07,inactive: 0.083,inactive: -0.027,inactive: -0.045,inactive: 0.05,inactive: 0.006,inactive: -0.013,inactive: 0.054,inactive: -0.014,inactive: -0.119
EXOSC10 (UniProt Q01780),inactive: 1.07,active: -0.86,inactive: 0.136,inactive: 0.008,inactive: 0.078,inactive: -0.101,inactive: -0.444,inactive: -0.055,inactive: 0.052,inactive: 0.067
EXOSC6 (UniProt Q5RKV6),inactive: 0.025,inactive: 0.023,inactive: 0.017,inactive: 0.008,inactive: -0.055,inactive: 0.036,inactive: -0.021,inactive: -0.006,inactive: -0.057,inactive: 0.033
EXOC3 (UniProt O60645),inactive: 0.065,inactive: 0.03,inactive: -0.022,inactive: -0.103,inactive: 0.052,inactive: -0.025,inactive: 0.011,inactive: 0.005,inactive: -0.044,inactive: -0.094
FAM177A1 isoform 2 (UniProt Q8N128),inactive: 0.048,inactive: 0.042,inactive: 0.038,inactive: 0.023,inactive: 0.036,inactive: 0.02,inactive: 0.024,inactive: -0.037,inactive: 0.109,inactive: 0.044
FAM117A (UniProt Q9C073),inactive: 0.127,inactive: 0.054,inactive: -0.056,inactive: 0.053,active: -0.279,inactive: -0.101,inactive: -0.041,inactive: -0.129,inactive: -0.143,inactive: -0.121
EXOSC7 (UniProt Q15024),inactive: 0.025,inactive: -0.038,inactive: -0.012,inactive: -0.006,inactive: 0.001,inactive: 0.034,inactive: -0.043,inactive: -0.029,inactive: 0.019,inactive: 0.043
FAM118B (UniProt Q9BPY3),inactive: 0.164,inactive: 0.098,inactive: 0.195,inactive: -0.084,inactive: 0.123,inactive: 0,inactive: 0.044,inactive: -0.021,inactive: -0.045,inactive: -0.023
ERAP1 isoform 2 (UniProt Q9NZ08),inactive: -0.041,inactive: -0.022,inactive: -0.032,inactive: -0.02,inactive: -0.021,inactive: 0,inactive: 0.014,inactive: 0.007,inactive: -0.017,inactive: -0.013
ERP29 (UniProt P30040),inactive: -0.07,inactive: -0.004,inactive: 0.024,inactive: -0.004,inactive: -0.022,inactive: -0.03,inactive: -0.005,inactive: 0.018,inactive: 0.014,inactive: -0.004
FADS3 (UniProt Q9Y5Q0),inactive: 0.03,inactive: -0.005,inactive: 0.104,inactive: 0.017,inactive: 0.064,inactive: 0.058,inactive: 0.04,inactive: 0.001,inactive: -0.055,inactive: 0.05

# Fetched one by one from above:
Target,log2 fold change (erlotinib),log2 fold change [1],log2 fold change [2],log2 fold change [3],log2 fold change [4],log2 fold change [5],log2 fold change [6],log2 fold change [7],log2 fold change [8],log2 fold change [9]
ERP29 (UniProt P30040),inactive: -0.07,inactive: -0.004,inactive: 0.024,inactive: -0.004,inactive: -0.022,inactive: -0.03,inactive: -0.005,inactive: 0.018,inactive: 0.014,inactive: -0.004
ERCC5 (UniProt P28715),inactive: -0.03,inactive: -0.003,inactive: -0.254,inactive: 0.098,inactive: -0.076,inactive: -0.109,inactive: -0.024,inactive: -0.013,inactive: 0.076,inactive: 0
